Laboratory results taken from article PMC7364817.
Results are given in words; binding and its absence hold for the method and conditions named. Binding seen in cells or lysates may run through a third protein. Here binding means that the protein was enriched with, or labelled near, the bait; the list need not be complete. Sequences can lack the tags named with a protein.

T1: FLAG-tagged SMCR8 (Smith-Magenis Syndrome Chromosome Region, Candidate 8) (UniProt Q8TEV9)
T1 sequence: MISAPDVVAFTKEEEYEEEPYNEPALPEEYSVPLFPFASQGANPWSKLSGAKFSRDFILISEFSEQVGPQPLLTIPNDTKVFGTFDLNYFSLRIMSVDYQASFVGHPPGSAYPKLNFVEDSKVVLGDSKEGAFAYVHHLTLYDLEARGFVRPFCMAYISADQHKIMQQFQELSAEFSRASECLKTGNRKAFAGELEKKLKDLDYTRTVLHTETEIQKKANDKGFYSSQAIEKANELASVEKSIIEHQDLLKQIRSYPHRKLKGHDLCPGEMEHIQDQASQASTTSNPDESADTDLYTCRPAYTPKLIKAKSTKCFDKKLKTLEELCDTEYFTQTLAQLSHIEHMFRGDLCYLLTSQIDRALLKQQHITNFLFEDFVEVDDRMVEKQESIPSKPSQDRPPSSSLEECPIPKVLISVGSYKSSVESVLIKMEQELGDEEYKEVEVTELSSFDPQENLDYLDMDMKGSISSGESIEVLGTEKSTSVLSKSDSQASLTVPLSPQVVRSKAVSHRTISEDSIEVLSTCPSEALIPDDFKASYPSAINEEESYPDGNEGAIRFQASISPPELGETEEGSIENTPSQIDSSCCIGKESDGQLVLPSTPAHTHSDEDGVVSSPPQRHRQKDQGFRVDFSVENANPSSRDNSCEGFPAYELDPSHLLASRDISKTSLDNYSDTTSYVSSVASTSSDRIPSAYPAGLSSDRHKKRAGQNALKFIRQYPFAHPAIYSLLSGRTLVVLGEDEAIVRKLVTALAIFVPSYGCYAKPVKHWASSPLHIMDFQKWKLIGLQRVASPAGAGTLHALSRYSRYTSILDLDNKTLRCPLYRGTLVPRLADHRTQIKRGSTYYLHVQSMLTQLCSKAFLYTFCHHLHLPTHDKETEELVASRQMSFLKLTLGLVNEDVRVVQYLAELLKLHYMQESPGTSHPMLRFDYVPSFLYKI

B1: structural maintenance of chromosomes 1A (protein, UniProt Q14683 1-1233)
chain: MGFLKLIEIENFKSYKGRQIIGPFQRFTAIIGPNGSGKSNLMDAISFVLGEKTSNLRVKTLRDLIHGAPVGKPAANRAFVSMVYSEEGAEDRTFARVIVGGSSEYKINNKVVQLHEYSEELEKLGILIKARNFLVFQGAVESIAMKNPKERTALFEEISRSGELAQEYDKRKKEMVKAEEDTQFNYHRKKNIAAERKEAKQEKEEADRYQRLKDEVVRAQVQLQLFKLYHNEVEIEKLNKELASKNKEIEKDKKRMDKVEDELKEKKKELGKMMREQQQIEKEIKEKDSELNQKRPQYIKAKENTSHKIKKLEAAKKSLQNAQKHYKKRKGDMDELEKEMLSVEKARQEFEERMEEESQSQGRDLTLEENQVKKYHRLKEEASKRAATLAQELEKFNRDQKADQDRLDLEERKKVETEAKIKQKLREIEENQKRIEKLEEYITTSKQSLEEQKKLEGELTEEVEMAKRRIDEINKELNQVMEQLGDARIDRQESSRQQRKAEIMESIKRLYPGSVYGRLIDLCQPTQKKYQIAVTKVLGKNMDAIIVDSEKTGRDCIQYIKEQRGEPETFLPLDYLEVKPTDEKLRELKGAKLVIDVIRYEPPHIKKALQYACGNALVCDNVEDARRIAFGGHQRHKTVALDGTLFQKSGVISGGASDLKAKARRWDEKAVDKLKEKKERLTEELKEQMKAKRKEAELRQVQSQAHGLQMRLKYSQSDLEQTKTRHLALNLQEKSKLESELANFGPRINDIKRIIQSREREMKDLKEKMNQVEDEVFEEFCREIGVRNIREFEEEKVKRQNEIAKKRLEFENQKTRLGIQLDFEKNQLKEDQDKVHMWEQTVKKDENEIEKLKKEEQRHMKIIDETMAQLQDLKNQHLAKKSEVNDKNHEMEEIRKKLGGANKEMTHLQKEVTAIETKLEQKRSDRHNLLQACKMQDIKLPLSKGTMDDISQEEGSSQGEDSVSGSQRISSIYAREALIEIDYGDLCEDLKDAQAEEEIKQEMNTLQQKLNEQQSVLQRIAAPNMKAMEKLESVRDKFQETSDEFEAARKRAKKAKQAFEQIKKERFDRFNACFESVATNIDEIYKALSRNSSAQAFLGPENPEEPYLDGINYNCVAPGKRFRPMDNLSGGEKTVAALALLFAIHSYKPAPFFVLDEIDAALDNTNIGKVANYIKEQSTCNFQAIVISLKEEFYTKAESLIGVYPEQGDCVISKVLTFDLTKYPDANPNPNEQ
B2: serpin family H member 1 (protein, UniProt P50454 19-418)
chain: AEVKKPAAAAAPGTAEKLSPKAATLAERSAGLAFSLYQAMAKDQAVENILVSPVVVASSLGLVSLGGKATTASQAKAVLSAEQLRDEEVHAGLGELLRSLSNSTARNVTWKLGSRLYGPSSVSFADDFVRSSKQHYNCEHSKINFRDKRSALQSINEWAAQTTDGKLPEVTKDVERTDGALLVNAMFFKPHWDEKFHHKMVDNRGFMVTRSYTVGVMMMHRTGLYNYYDDEKEKLQIVEMPLAHKLSSLIILMPHHVEPLERLEKLLTKEQLKIWMGKMQKKAVAISLPKGVVEVTHDLQKHLAGLGLTEAIDKNKADLSRMSGKKDLYLASVFHATAFELDTDGNPFDQDIYGREELRSPKLFYADHPFIFLVRDTQSGSLLFIGRLVRPKGDKMRDEL
B3: unc-45 myosin chaperone A (protein, UniProt Q9H3U1 1-944)
chain: MTVSGPGTPEPRPATPGASSVEQLRKEGNELFKCGDYGGALAAYTQALGLDATPQDQAVLHRNRAACHLKLEDYDKAETEASKAIEKDGGDVKALYRRSQALEKLGRLDQAVLDLQRCVSLEPKNKVFQEALRNIGGQIQEKVRYMSSTDAKVEQMFQILLDPEEKGTEKKQKASQNLVVLAREDAGAEKIFRSNGVQLLQRLLDMGETDLMLAALRTLVGICSEHQSRTVATLSILGTRRVVSILGVESQAVSLAACHLLQVMFDALKEGVKKGFRGKEGAIIVDPARELKVLISNLLDLLTEVGVSGQGRDNALTLLIKAVPRKSLKDPNNSLTLWVIDQGLKKILEVGGSLQDPPGELAVTANSRMSASILLSKLFDDLKCDAERENFHRLCENYIKSWFEGQGLAGKLRAIQTVSCLLQGPCDAGNRALELSGVMESVIALCASEQEEEQLVAVEALIHAAGKAKRASFITANGVSLLKDLYKCSEKDSIRIRALVGLCKLGSAGGTDFSMKQFAEGSTLKLAKQCRKWLCNDQIDAGTRRWAVEGLAYLTFDADVKEEFVEDAAALKALFQLSRLEERSVLFAVASALVNCTNSYDYEEPDPKMVELAKYAKQHVPEQHPKDKPSFVRARVKKLLAAGVVSAMVCMVKTESPVLTSSCRELLSRVFLALVEEVEDRGTVVAQGGGRALIPLALEGTDVGQTKAAQALAKLTITSNPEMTFPGERIYEVVRPLVSLLHLNCSGLQNFEALMALTNLAGISERLRQKILKEKAVPMIEGYMFEEHEMIRRAATECMCNLAMSKEVQDLFEAQGNDRLKLLVLYSGEDDELLQRAAAGGLAMLTSMRPTLCSRIPQVTTHWLEILQALLLSSNQELQHRGAVVVLNMVEASREIASTLMESEMMEILSVLAKGDHSPVTRAAAACLDKAVEYGLIQPNQDGE
B4: DnaJ heat shock protein family (Hsp40) member C10 (protein, UniProt Q8IXB1 33-793)
chain: DQDFYSLLGVSKTASSREIRQAFKKLALKLHPDKNPNNPNAHGDFLKINRAYEVLKDEDLRKKYDKYGEKGLEDNQGGQYESWNYYRYDFGIYDDDPEIITLERREFDAAVNSGELWFVNFYSPGCSHCHDLAPTWRDFAKEVDGLLRIGAVNCGDDRMLCRMKGVNSYPSLFIFRSGMAPVKYHGDRSKESLVSFAMQHVRSTVTELWTGNFVNSIQTAFAAGIGWLITFCSKGGDCLTSQTRLRLSGMLDGLVNVGWMDCATQDNLCKSLDITTSTTAYFPPGATLNNKEKNSILFLNSLDAKEIYLEVIHNLPDFELLSANTLEDRLAHHRWLLFFHFGKNENSNDPELKKLKTLLKNDHIQVGRFDCSSAPDICSNLYVFQPSLAVFKGQGTKEYEIHHGKKILYDILAFAKESVNSHVTTLGPQNFPANDKEPWLVDFFAPWCPPCRALLPELRRASNLLYGQLKFGTLDCTVHEGLCNMYNIQAYPTTVVFNQSNIHEYEGHHSAEQILEFIEDLMNPSVVSLTPTTFNELVTQRKHNEVWMVDFYSPWCHPCQVLMPEWKRMARTLTGLINVGSIDCQQYHSFCAQENVQRYPEIRFFPPKSNKAYHYHSYNGWNRDAYSLRIWGLGFLPQVSTDLTPQTFSEKVLQGKNHWVIDFYAPWCGPCQNFAPEFELLARMIKGKVKAGKVDCQAYAQTCQKAGIRAYPTVKFYFYERAKRNFQEEQINTRDAKAIAALISEKLETLRNQGKRNKDEL
B5: single stranded DNA binding protein 1 (protein, UniProt Q04837 17-148)
chain: ESETTTSLVLERSLNRVHLLGRVGQDPVLRQVEGKNPVTIFSLATNEMWRSGDSEVYQLGDVSQKTTWHRISVFRPGLRDVAYQYVKKGSRIYLEGKIDYGEYMDKNNVRRQATTIIADNIIFLSDQTKEKE
B6: DNA polymerase delta 3, accessory subunit (protein, UniProt Q15054 1-466)
chain: MADQLYLENIDEFVTDQNKIVTYKWLSYTLGVHVNQAKQMLYDYVERKRKENSGAQLHVTYLVSGSLIQNGHSCHKVAVVREDKLEAVKSKLAVTASIHVYSIQKAMLKDSGPLFNTDYDILKSNLQNCSKFSAIQCAAAVPRAPAESSSSSKKFEQSHLHMSSETQANNELTTNGHGPPASKQVSQQPKGIMGMFASKAAAKTQETNKETKTEAKEVTNASAAGNKAPGKGNMMSNFFGKAAMNKFKVNLDSEQAVKEEKIVEQPTVSVTEPKLATPAGLKKSSKKAEPVKVLQKEKKRGKRVALSDDETKETENMRKKRRRIKLPESDSSEDEVFPDSPGAYEAESPSPPPPPSPPLEPVPKTEPEPPSVKSSSGENKRKRKRVLKSKTYLDGEGCIVTEKVYESESCTDSEEELNMKTSSVHRPPAMTVKKEPREERKGPKKGTAALGKANRQVSITGFFQRK

Target: T1, FLAG-tagged SMCR8 (Smith-Magenis Syndrome Chromosome Region, Candidate 8)
Assay: affinity purification with mass spectrometry; FL-SMCR8, C9orf72-FL or empty vector transfected in HEK 293T; α-FLAG agarose IP from whole cell lysates with or without RNase; LC-MS/MS; hits with three or more spectra and not detected in vector only control

Binder	binding
B1	binds
B2	binds
B3	binds
B4	binds
B5	binds
B6	binds
